Assay results from US7049444B2, “3-azabicyclo[3.1.0]hexane derivatives useful in therapy” (Pfizer Inc., priority 1998, dated 2006).
Counter-ions that a name gives are not always drawn. Some entries share one result that the patent states for a list of compounds.

Sequences of proteins named here, by UniProt entry; tags and fusion partners are left off. Residues count along the entry.
UniProt A0A0F6TMT6, 1-401: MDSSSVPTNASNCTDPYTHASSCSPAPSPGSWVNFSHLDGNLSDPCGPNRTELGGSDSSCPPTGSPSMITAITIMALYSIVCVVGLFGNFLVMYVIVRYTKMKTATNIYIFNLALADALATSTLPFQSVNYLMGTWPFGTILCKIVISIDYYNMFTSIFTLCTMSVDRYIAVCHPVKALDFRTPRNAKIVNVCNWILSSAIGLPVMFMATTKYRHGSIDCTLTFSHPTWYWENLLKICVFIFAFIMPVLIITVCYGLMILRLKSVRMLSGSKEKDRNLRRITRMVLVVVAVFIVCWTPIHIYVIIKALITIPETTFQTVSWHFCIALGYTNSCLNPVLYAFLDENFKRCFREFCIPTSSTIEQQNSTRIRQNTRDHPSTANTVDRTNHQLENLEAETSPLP

These compounds were tested against T1, mu opioid receptor (Canis lupus familiaris, UniProt A0A0F6TMT6) (assay: mu opioid receptor binding assay in dog brain membranes (3H-DAMGO displacement)). Settings: room temperature 90 minutes, read-out: Ki values for the μ receptor.
T1 construct: Laboratory bred beagles were used as a source of dog brain tissue; from tissue; host or cells: beagle brain without cerebellum, washed membrane homogenate
CC1(c2cccc(NS(C)(=O)=O)c2)C2CN(CCCc3ccccc3)CC21 (stereo not shown) [Example 1, N-{3-[6-Methyl-3-(3-phenylpropyl)-3-azabicyclo[3.1.0]hex-6-yl]phenyl}methanesulfonamide] gave a Ki of at most 4 µM. Work on CCCCCCN1CC2C(C1)C2(C)c1cccc(NS(C)(=O)=O)c1 (stereo not shown) [Example 6, N-[3-(3-Hexyl-6-methyl-3-azabicyclo[3.1.0]hex-6-yl)phenyl]methanesulfonamide] yielded a Ki of at most 4 µM. With CCCCCCN1CC2C(C1)C2(C)c1cccc(NS(=O)(=O)CCC)c1 (stereo not shown) [Example 8, N-[3-(3-Hexyl-6-methyl-3-azabicyclo[3.1.0]hex-6-yl)phenyl]-1-propanesulfonamide] the Ki was at most 4 µM. CCCCCCN1CC2C(C1)C2c1ccccc1 (stereo not shown) [Example 15, 3-Hexyl-6-phenyl-3-azabicyclo[3.1.0]hexane] was tested, and the Ki was at most 4 µM. CC1(c2cccc(NS(=O)(=O)c3ccccc3)c2)C2CN(CCCc3ccccc3)CC21 (stereo not shown) [Example 16, N-{3-[6-Methyl-3-(3-phenylpropyl)-3-azabicyclo[3.1.0]hex-6-yl]phenyl}benzenesulfonamide acetate salt] was tested, and the Ki was at most 4 µM. Compound Cc1noc(C)c1S(=O)(=O)Nc1cccc(C2(C)C3CN(CCCc4ccccc4)CC32)c1 (stereo not shown) [Example 19, N-{3-[6-Methyl-3-(3-phenylpropyl)-3-azabicyclo[3.1.0]hex-6-yl]phenyl}-3,5-dimethyl-4-isoxazolesulfonamide acetate salt] has a Ki of at most 4 µM. For CC1(c2cccc(NS(=O)(=O)Cc3ccccc3)c2)C2CN(CCCc3ccccc3)CC21 (stereo not shown) [Example 21, N-{3-[6-Methyl-3-(3-phenylpropyl)-3-azabicyclo[3.1.0]hex-6-yl]phenyl}(phenyl)methanesulfonamide acetate salt], the Ki was at most 4 µM. CC1(c2cccc(NS(C)(=O)=O)c2)C2CN(Cc3ccccc3)CC21 (stereo not shown) [Example 22, N-[3-(3-Benzyl-6-methyl-3-azabicyclo[3.1.0]hex-6-yl)phenyl]methanesulfonamide] gave a Ki of at most 4 µM. CC1(c2cccc(-c3c[nH]nn3)c2)C2CN(CCCc3ccccc3)CC21 (stereo not shown) [Example 23, 6-Methyl-3-(3-phenylpropyl)-6-[3-(1H-1,2,3-triazol-5-yl)phenyl]-3-azabicyclo[3.1.0]hexane] showed a Ki of at most 4 µM. CCCCCCN1CC2C(C1)C2(C)c1cccc(-c2c[nH]nn2)c1 (stereo not shown) [Example 24, 3-Hexyl-6-methyl-6-[3-(1H-1,2,3-triazol-5-yl)phenyl]-3-azabicyclo[3.1.0]hexane] was tested, and the Ki was at most 4 µM.
